Earlier results as cited in PMC8778678 (Viruses, 2022).

Tested on: SARS-CoV-2
Design: method as in ref 28 = [28]
Conditions: Vero E6 system; read-out: EC50, SARS-CoV-2 cytopathic effect; cited from earlier work

In the case of `CN(C)CCCN1c2ccccc2CCc2ccc(Cl)cc21` [clomipramine], the EC50 is listed as 13.6 µM.
